PubChem BioAssay AID504784 – Drosophila RNAi Screening Center, 2011
The screen tested about 17,000 reagents; shown is an unselected part of those that have a named target and a result. 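Each column is one replicate's B-score; the combined score over replicates was not deposited, so single values may mislead.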 Reagent sequences are not shown.

- Purpose: 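Search for regulators of lipid droplet storage in oleate-fed fly cells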 (primary screen)
- Cell system: Drosophila Kc167 embryonic cells
- Reagent: long dsRNA against Drosophila genes, about 250 ng dsRNA per well
- Timing: 4 days
- Challenge: cells fed 400 µM oleic acid bound to BSA
- Read-out: 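Cells imaged and segmented; ratio of lipid droplet area to nuclear area, log-transformed, then normalised as a B-score over the screen; higher means more stored lipid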
- Direction: droplet/nuclear area B-score: higher = more stored lipid (overstorage)

tapas (GeneID 37304) [DRSC05950] | droplet/nuclear area B-score, replicate 1: -0.907; droplet/nuclear area B-score, replicate 2: 0.652
Mcm10 (GeneID 35390) [DRSC03162] | droplet/nuclear area B-score, replicate 1: -0.0815; droplet/nuclear area B-score, replicate 2: 2
CG2021 (GeneID 38229) [DRSC08546] | droplet/nuclear area B-score, replicate 1: -0.0349; droplet/nuclear area B-score, replicate 2: -1.72
Nup75 (GeneID 37078) [DRSC06947] | droplet/nuclear area B-score, replicate 2: -0.522
AstA-R2 (GeneID 43393) [DRSC14171] | droplet/nuclear area B-score, replicate 1: 0.078; droplet/nuclear area B-score, replicate 2: -0.27
mahe (GeneID 31707) [DRSC17755] | droplet/nuclear area B-score, replicate 1: 0.427; droplet/nuclear area B-score, replicate 2: -0.862; droplet/nuclear area B-score, replicate 3: -0.958
Kaz (GeneID 326135) [DRSC14637] | droplet/nuclear area B-score, replicate 1: 0.324; droplet/nuclear area B-score, replicate 2: 0.0111
Ir47a (GeneID 36095) [DRSC06215] | droplet/nuclear area B-score, replicate 1: -0.571; droplet/nuclear area B-score, replicate 2: 0.0902
CG5171 (GeneID 34016) [DRSC02823] | droplet/nuclear area B-score, replicate 1: 0.0485; droplet/nuclear area B-score, replicate 2: -0.00891
Cp18 (GeneID 38998) [DRSC11120] | droplet/nuclear area B-score, replicate 1: -0.00864; droplet/nuclear area B-score, replicate 2: -0.0771
CG9686 (GeneID 31921) [DRSC18439] | droplet/nuclear area B-score, replicate 1: -0.453; droplet/nuclear area B-score, replicate 2: -0.108; droplet/nuclear area B-score, replicate 3: -1.17
SrpRalpha (GeneID 47251) [DRSC20251] | droplet/nuclear area B-score, replicate 1: 2.1; droplet/nuclear area B-score, replicate 2: 3.15; droplet/nuclear area B-score, replicate 3: 1.55

The list goes on (2 carried over from the part before).
CG9686 (GeneID 31921) [DRSC18439] | droplet/nuclear area B-score, replicate 1: -0.453; droplet/nuclear area B-score, replicate 2: -0.108; droplet/nuclear area B-score, replicate 3: -1.17
SrpRalpha (GeneID 47251) [DRSC20251] | droplet/nuclear area B-score, replicate 1: 2.1; droplet/nuclear area B-score, replicate 2: 3.15; droplet/nuclear area B-score, replicate 3: 1.55
Esp (GeneID 42962) [DRSC16664] | droplet/nuclear area B-score, replicate 1: 0.563; droplet/nuclear area B-score, replicate 2: -0.31
CG18765 (GeneID 59149) [DRSC15392] | droplet/nuclear area B-score, replicate 1: -0.019; droplet/nuclear area B-score, replicate 2: -0.00263
KCNQ (GeneID 36071) [DRSC06121] | droplet/nuclear area B-score, replicate 1: -1.12; droplet/nuclear area B-score, replicate 2: -0.994
KCNQ (GeneID 36071) [DRSC06230] | droplet/nuclear area B-score, replicate 1: 0.791; droplet/nuclear area B-score, replicate 2: 1.67
CG6108 (retired record) (GeneID 34733) [DRSC02929] | droplet/nuclear area B-score, replicate 1: -2.03; droplet/nuclear area B-score, replicate 2: 0.393
Dolk (GeneID 36856) [DRSC07143] | droplet/nuclear area B-score, replicate 1: -0.429; droplet/nuclear area B-score, replicate 2: -0.742
Bruce (GeneID 41260) [DRSC16015] | droplet/nuclear area B-score, replicate 1: -0.366; droplet/nuclear area B-score, replicate 2: -0.0482
CG12863 (GeneID 36623) [DRSC06203] | droplet/nuclear area B-score, replicate 1: -2.01; droplet/nuclear area B-score, replicate 2: -0.0357
Synj (GeneID 37517) [DRSC04526] | droplet/nuclear area B-score, replicate 1: 0.456; droplet/nuclear area B-score, replicate 2: 0.253
dgt6 (GeneID 43441) [DRSC14424] | droplet/nuclear area B-score, replicate 1: -0.62; droplet/nuclear area B-score, replicate 2: 0.681
HUWE1 (GeneID 32510) [DRSC20089] | droplet/nuclear area B-score, replicate 1: 1.72; droplet/nuclear area B-score, replicate 2: 2.26
CG9312 (GeneID 41686) [DRSC16471] | droplet/nuclear area B-score, replicate 1: 8.39; droplet/nuclear area B-score, replicate 2: 1.4
CG2611 (GeneID 35324) [DRSC02710] | droplet/nuclear area B-score, replicate 1: 0.319; droplet/nuclear area B-score, replicate 2: -1.38
Rme-8 (GeneID 35939) [DRSC07054] | droplet/nuclear area B-score, replicate 1: 0.0643; droplet/nuclear area B-score, replicate 2: 3.07
ssp7 (GeneID 318146) [DRSC18878] | droplet/nuclear area B-score, replicate 1: -1.99; droplet/nuclear area B-score, replicate 2: -0.574
